Measurements taken from the supplement of paper PMC10849652.
Some of the results follow.

Protein sequences, listed by entry. Tags and fused reporters are not part of them. Lines headed by an entry give the natural chain unless they say otherwise; changes in a name come on top.
UniProt P34896: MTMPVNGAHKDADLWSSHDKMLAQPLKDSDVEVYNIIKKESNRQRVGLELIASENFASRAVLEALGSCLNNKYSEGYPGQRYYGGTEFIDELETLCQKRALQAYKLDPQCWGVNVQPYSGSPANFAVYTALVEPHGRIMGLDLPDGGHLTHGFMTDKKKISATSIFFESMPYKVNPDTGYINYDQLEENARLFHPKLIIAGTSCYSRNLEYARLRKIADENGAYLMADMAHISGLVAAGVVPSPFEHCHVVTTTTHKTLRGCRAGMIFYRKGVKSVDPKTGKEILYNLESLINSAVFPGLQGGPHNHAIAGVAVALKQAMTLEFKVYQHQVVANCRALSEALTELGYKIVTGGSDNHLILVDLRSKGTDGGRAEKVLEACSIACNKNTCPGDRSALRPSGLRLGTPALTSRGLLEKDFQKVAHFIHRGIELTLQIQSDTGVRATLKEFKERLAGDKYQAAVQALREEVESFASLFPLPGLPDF
UniProt A0MZ66, whole entry, looked up: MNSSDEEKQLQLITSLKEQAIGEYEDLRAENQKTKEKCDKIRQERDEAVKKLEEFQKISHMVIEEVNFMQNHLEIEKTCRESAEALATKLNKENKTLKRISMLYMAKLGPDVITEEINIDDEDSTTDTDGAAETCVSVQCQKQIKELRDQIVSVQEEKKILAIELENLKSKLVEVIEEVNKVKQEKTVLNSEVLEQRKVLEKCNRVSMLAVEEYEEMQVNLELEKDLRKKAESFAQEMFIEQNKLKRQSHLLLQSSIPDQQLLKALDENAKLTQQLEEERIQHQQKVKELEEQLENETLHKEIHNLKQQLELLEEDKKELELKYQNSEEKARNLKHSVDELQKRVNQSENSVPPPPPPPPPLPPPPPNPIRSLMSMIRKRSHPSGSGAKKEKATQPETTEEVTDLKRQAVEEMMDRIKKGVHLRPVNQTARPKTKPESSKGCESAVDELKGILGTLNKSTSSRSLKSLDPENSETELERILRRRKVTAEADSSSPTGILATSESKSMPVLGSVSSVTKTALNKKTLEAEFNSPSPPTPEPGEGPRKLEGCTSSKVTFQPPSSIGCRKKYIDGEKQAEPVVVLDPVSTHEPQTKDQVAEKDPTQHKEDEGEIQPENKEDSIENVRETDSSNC
UniProt Q6P4A7: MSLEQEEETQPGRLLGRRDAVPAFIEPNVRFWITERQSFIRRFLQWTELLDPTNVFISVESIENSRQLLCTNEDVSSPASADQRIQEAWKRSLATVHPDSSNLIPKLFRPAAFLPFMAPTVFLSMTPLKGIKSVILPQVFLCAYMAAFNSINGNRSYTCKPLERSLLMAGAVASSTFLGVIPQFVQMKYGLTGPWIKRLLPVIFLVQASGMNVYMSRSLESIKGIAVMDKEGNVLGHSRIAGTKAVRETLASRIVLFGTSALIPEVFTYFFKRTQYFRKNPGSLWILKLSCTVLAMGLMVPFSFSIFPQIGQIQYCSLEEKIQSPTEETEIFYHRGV
UniProt Q13530: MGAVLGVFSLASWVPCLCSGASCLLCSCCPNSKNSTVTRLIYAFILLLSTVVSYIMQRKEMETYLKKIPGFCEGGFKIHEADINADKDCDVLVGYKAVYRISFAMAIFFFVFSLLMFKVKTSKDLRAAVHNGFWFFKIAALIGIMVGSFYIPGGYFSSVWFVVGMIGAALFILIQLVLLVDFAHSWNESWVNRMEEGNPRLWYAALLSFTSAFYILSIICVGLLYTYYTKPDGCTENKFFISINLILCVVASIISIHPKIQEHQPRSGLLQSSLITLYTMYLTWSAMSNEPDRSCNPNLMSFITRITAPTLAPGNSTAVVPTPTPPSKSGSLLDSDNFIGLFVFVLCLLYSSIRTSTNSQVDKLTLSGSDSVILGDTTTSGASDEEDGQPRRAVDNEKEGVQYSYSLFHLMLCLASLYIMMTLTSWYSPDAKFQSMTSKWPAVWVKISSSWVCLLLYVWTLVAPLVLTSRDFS
UniProt P34897: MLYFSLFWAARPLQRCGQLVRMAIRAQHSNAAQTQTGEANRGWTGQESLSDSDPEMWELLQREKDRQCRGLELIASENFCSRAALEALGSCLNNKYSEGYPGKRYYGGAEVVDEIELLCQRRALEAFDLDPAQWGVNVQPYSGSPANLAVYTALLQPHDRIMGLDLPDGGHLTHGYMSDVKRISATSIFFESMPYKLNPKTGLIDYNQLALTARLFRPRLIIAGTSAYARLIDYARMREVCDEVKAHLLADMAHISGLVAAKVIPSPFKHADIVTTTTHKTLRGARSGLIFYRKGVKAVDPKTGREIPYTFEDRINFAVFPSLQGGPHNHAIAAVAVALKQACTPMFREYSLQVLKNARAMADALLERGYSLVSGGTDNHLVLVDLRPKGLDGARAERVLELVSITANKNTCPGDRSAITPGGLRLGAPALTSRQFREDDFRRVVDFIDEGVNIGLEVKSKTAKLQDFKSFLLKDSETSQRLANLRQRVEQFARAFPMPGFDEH
UniProt Q01105, whole entry, looked up: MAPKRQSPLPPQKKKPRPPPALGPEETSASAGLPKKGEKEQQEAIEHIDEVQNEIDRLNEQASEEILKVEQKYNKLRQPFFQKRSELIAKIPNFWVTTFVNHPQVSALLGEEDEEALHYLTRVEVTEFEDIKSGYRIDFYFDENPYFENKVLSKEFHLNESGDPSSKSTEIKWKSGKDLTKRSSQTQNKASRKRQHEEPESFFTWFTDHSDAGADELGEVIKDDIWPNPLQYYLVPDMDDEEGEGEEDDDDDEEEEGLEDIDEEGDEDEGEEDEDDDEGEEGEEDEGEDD
UniProt Q9NP31, whole entry, looked up: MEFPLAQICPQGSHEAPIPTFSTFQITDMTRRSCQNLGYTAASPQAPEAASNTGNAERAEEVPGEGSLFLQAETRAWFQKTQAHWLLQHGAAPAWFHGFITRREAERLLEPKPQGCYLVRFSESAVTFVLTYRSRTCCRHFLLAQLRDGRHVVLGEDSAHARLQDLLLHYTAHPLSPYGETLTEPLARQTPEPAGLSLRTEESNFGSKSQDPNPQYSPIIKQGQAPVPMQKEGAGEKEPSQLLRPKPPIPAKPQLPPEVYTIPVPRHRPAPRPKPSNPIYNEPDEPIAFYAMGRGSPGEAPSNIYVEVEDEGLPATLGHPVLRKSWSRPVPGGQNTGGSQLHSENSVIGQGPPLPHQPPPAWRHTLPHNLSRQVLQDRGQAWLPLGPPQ
UniProt Q9BYW2: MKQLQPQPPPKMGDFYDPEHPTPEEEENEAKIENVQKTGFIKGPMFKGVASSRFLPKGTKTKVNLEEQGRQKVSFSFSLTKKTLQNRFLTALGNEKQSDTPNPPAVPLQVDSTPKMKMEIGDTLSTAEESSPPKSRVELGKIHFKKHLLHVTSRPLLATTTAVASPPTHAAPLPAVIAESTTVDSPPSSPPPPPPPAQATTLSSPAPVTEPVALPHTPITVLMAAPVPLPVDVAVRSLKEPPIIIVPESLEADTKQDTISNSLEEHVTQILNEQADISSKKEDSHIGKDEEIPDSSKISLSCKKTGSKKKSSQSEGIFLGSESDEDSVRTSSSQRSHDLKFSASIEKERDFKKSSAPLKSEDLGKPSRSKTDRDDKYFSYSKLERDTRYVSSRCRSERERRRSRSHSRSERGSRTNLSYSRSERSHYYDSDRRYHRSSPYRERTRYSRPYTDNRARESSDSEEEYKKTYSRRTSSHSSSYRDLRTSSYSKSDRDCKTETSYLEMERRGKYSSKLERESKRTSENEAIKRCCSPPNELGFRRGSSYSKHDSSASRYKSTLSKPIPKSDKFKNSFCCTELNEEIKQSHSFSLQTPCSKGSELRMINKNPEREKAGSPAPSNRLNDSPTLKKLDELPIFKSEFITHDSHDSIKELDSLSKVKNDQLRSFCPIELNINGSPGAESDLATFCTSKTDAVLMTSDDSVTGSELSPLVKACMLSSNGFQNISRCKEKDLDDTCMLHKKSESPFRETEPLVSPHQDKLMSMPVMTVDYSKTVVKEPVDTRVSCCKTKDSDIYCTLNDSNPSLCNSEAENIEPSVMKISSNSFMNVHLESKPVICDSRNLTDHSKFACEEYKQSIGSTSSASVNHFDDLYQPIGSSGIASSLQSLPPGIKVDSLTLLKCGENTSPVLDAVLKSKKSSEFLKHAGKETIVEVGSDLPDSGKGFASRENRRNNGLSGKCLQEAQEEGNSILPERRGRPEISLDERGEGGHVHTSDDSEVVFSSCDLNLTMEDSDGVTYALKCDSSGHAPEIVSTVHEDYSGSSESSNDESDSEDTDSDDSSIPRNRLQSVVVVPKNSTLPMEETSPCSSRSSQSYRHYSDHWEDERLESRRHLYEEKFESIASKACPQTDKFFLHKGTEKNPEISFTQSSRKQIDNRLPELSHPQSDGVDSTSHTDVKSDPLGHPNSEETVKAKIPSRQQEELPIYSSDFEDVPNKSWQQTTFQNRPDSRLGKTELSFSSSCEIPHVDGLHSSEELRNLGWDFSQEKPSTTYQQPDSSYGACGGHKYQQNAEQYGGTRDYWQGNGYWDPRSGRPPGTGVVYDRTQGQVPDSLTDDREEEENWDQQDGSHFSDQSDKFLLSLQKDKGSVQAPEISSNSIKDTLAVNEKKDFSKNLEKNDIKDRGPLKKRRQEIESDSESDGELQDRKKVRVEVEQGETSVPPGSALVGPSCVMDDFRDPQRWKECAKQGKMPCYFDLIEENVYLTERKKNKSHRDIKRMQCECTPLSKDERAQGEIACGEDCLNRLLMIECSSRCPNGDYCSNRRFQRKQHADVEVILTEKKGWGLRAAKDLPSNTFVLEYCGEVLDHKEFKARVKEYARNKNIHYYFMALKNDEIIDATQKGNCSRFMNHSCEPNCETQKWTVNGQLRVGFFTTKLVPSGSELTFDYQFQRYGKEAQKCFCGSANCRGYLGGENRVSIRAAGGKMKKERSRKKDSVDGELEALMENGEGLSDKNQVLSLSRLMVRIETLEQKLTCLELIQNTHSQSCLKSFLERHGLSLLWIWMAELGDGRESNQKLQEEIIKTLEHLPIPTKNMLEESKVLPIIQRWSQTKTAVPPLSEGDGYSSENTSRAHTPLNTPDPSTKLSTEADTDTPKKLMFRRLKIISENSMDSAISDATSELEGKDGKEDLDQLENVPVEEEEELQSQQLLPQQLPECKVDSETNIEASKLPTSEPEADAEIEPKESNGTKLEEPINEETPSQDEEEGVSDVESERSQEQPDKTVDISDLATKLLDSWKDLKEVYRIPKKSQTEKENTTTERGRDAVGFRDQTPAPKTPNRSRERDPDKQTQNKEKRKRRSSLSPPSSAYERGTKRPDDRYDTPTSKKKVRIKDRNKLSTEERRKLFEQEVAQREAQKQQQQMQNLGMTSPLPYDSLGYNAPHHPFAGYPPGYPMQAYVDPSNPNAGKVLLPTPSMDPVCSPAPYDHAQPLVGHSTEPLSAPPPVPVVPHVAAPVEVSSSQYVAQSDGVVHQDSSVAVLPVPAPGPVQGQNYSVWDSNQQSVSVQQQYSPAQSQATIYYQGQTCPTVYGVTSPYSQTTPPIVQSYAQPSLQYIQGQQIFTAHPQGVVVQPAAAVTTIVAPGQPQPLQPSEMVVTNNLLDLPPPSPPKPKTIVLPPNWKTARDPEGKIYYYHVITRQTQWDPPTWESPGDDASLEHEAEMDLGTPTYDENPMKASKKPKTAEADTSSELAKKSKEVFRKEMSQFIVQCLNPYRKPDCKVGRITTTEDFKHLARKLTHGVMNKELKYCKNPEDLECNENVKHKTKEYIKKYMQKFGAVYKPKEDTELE
UniProt Q9NR46: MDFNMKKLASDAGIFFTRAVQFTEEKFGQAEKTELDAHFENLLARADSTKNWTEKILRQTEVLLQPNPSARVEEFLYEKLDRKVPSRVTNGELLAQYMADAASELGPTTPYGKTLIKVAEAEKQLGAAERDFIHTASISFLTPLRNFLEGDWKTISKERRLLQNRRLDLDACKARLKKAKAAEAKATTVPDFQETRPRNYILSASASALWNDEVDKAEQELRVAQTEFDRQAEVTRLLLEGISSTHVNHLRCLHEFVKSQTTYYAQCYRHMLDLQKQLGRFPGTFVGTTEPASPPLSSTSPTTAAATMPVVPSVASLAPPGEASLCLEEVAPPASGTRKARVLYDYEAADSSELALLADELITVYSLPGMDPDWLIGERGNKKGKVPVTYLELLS
UniProt Q9NRA2: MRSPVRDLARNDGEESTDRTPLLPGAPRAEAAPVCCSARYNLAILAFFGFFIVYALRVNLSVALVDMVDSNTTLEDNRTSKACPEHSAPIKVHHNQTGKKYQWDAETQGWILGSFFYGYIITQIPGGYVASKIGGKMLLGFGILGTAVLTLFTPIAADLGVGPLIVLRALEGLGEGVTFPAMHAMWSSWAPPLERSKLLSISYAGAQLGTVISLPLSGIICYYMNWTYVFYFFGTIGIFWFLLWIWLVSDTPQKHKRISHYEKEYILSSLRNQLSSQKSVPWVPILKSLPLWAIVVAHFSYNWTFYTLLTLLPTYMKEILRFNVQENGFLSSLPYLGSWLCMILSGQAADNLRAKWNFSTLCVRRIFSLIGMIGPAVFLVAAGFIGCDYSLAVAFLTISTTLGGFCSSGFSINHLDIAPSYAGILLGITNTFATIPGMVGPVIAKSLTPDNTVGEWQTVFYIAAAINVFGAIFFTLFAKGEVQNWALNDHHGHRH

Columns and labels:
Experiment in all cases: log2 fold change, soluble protein after heating vs DMSO (PISA); higher = thermal stabilisation; K562 lysate, 10 uM; active = over 0.2 and 3.5 SD of the protein, either way, in both replicates (recomputed)
[1] = compound: C1=CC=C(C=C1)[C@H](COC2=CC3=C(C=C2)NC(=O)N3)NC(=O)C4=CC=CN(C4=O)CC5=CC(=C(C=C5)F)F
How it was run: (§1)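 Values give the log-two fold change in thermal stability against solvent controls, from duplicates. Crude K562 extract at 1 mg/mL protein, made by dounce homogenisation in PBS pH 7.4 with 1 mM MgCl2, was treated with 10 μM compound for 30 min. After 3 min heating across 48°C-58°C, aliquots were pooled, adjusted to 0.5% NP-40 at 4°C and centrifuged at 21,000xg for 90 min. The supernatant was measured by TMTpro 16plex LC-MS/MS with channel sums equalised.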

[2] = compound: CC1=C(SC2=C1C(=N[C@H](C3=NN=C(N32)C)CC(=O)N)C4=CC=C(C=C4)Cl)C
How it was run: as §1

[3] = compound: CC1=C2C(=CC=C1)N=C(N(C2=O)C3=CC=CC=C3C)CN4C=NC5=C(N=CN=C54)N
How it was run: as §1

[4] = compound: Cc1sc2c(c1C)C(c1ccc(Cl)cc1)=N[C@@H](CC(=O)OC(C)(C)C)c1nnc(C)n1-2
How it was run: as §1

[5] = compound: c1ccc([C@@H]2C[C@H]2NC2CCNCC2)cc1
How it was run: as §1

Measured: log2 fold change

SKAP2 (UniProt O75563)
inactive: [1] -0.038 | [2] 0.008 | [3] 0.022 | [4] -0.009 | [5] -0.039

SGO1 (UniProt Q5FBB7)
inactive: [1] 0.061 | [2] -0.004 | [3] 0.044 | [4] 0.015 | [5] -0.039

SHMT1 (UniProt P34896)
inactive: [1] 0 | [2] -0.007 | [3] -0.011 | [4] -0.014 | [5] -0.047

SF3B1 (UniProt O75533)
inactive: [1] -0.004 | [2] 0.028 | [3] 0.011 | [4] -0.008 | [5] 0.015

SHTN1 (UniProt A0MZ66)
inactive: [1] -0.001 | [2] 0.041 | [3] -0.002 | [4] -0.026 | [5] -0.015

SERPINB13 (UniProt Q9UIV8)
inactive: [1] -0.158 | [2] 0.232

SFXN4 (UniProt Q6P4A7)
inactive: [1] 0.027 | [2] -0.054 | [3] -0.04 | [4] 0.002 | [5] 0.063

SERPINB9 (UniProt P50453)
inactive: [1] -0.007 | [2] 0.001 | [3] -0.001 | [4] 0.002 | [5] -0.011

SIDT2 isoform 2 (UniProt Q8NBJ9)
inactive: [1] 0.038 | [2] 0.008 | [3] 0.016 | [4] 0.028 | [5] -0.008

SERINC3 (UniProt Q13530)
inactive: [1] 0.109 | [2] -0.016 | [3] 0.028 | [4] -0.056 | [5] -0.175

Reprinted from the entries so far (2 entries):
SERPINB13 (UniProt Q9UIV8)
inactive: [1] -0.158 | [2] 0.232

SFXN4 (UniProt Q6P4A7)
inactive: [1] 0.027 | [2] -0.054 | [3] -0.04 | [4] 0.002 | [5] 0.063

Going on with the list.

SH3BGRL (UniProt O75368)
inactive: [1] 0.013 | [2] -0.012 | [3] -0.022 | [4] 0.009 | [5] -0.014

SHMT2 (UniProt P34897)
inactive: [1] 0.014 | [2] 0.015 | [3] -0.001 | [4] 0.008 | [5] 0.008

SETDB1 (UniProt Q15047)
inactive: [1] 0.016 | [2] 0.053 | [3] 0.04 | [4] 0.018 | [5] -0.057

SET isoform 2 (UniProt Q01105)
inactive: [1] 0.016 | [2] 0.011 | [3] -0.041 | [4] -0.02 | [5] -0.005

SH2D2A isoform 2 (UniProt Q9NP31)
inactive: [1] 0.111 | [2] 0.067 | [3] -0.085 | [4] 0 | [5] 0.003

SF3A2 (UniProt Q15428)
inactive: [1] -0.036 | [2] 0.044 | [3] -0.035 | [4] 0.037 | [5] -0.049

SLC20A1 (UniProt Q8WUM9)
inactive: [1] 0.071 | [2] -0.048 | [3] 0.007 | [4] -0.046 | [5] 0.024

SETD2 (UniProt Q9BYW2)
inactive: [1] -0.076 | [2] -0.001 | [3] 0.046 | [4] -0.018 | [5] -0.061

SIRT2 (UniProt Q8IXJ6)
inactive: [1] 0.016 | [2] -0.066 | [3] 0.046 | [4] -0.008 | [5] -0.066

SF1 isoform 6 (UniProt Q15637)
inactive: [1] -0.007 | [2] 0.069 | [3] -0.091 | [4] 0.122 | [5] -0.071

SH3GLB2 (UniProt Q9NR46)
inactive: [1] 0.027 | [2] -0.013 | [3] 0.041 | [4] 0.044 | [5] 0.051

SLC15A4 (UniProt Q8N697)
inactive: [1] -0.011 | [2] -0.006 | [3] 0.074 | [4] 0.01 | [5] 0.05

SIKE1 (UniProt Q9BRV8)
inactive: [1] 0.123 | [2] 0.007 | [3] -0.078 | [4] 0.004 | [5] 0.027

SGPL1 (UniProt O95470)
inactive: [1] -0.019 | [2] 0.003 | [3] 0.024 | [4] -0.107 | [5] -0.061

SLC17A5 (UniProt Q9NRA2)
inactive: [1] -0.173 | [2] 0.008 | [3] -0.176 | [4] 0.014 | [5] 0.008
